# Melanoma cell counts after drug treatment

Values as published with doi:10.1371/journal.pone.0140310, rounded.

Compounds and concentrations:
CP-690550 (1000 nM): C[C@@H]1CCN(C(=O)CC#N)C[C@@H]1N(C)c1ncnc2[nH]ccc12
dasatinib (4 nM): Cc1nc(Nc2ncc(C(=O)Nc3c(C)cccc3Cl)s2)cc(N2CCN(CCO)CC2)n1
veliparib (1400 nM): C[C@]1(c2nc3c(C(N)=O)cccc3[nH]2)CCCN1
GW2580 (1000 nM): COc1ccc(COc2ccc(Cc3cnc(N)nc3N)cc2OC)cc1
pioglitazone (2000 nM): CCc1ccc(CCOc2ccc(CC3SC(=O)NC3=O)cc2)nc1 (stereo unspecified)
midostaurin (80 nM): CO[C@@H]1[C@H](N(C)C(=O)c2ccccc2)C[C@H]2O[C@]1(C)n1c3ccccc3c3c4c(c5c6ccccc6n2c5c31)C(=O)NC4
JZL184 (1000 nM): O=C(Oc1ccc([N+](=O)[O-])cc1)N1CCC(C(O)(c2ccc3c(c2)OCO3)c2ccc3c(c2)OCO3)CC1
lenalidomide (1000 nM): Nc1cccc2c1CN(C1CCC(=O)NC1=O)C2=O (stereo unspecified)
KU-0063794 (20 nM): COc1ccc(-c2ccc3c(N4CCOCC4)nc(N4C[C@@H](C)O[C@@H](C)C4)nc3n2)cc1CO
U73122 (400 nM): COc1ccc2c(c1)CCC1C2CCC2(C)C(NCCCCCCN3C(=O)C=CC3=O)CCC12 (stereo unspecified)
tipifarnib (10 nM): Cn1cncc1[C@@](N)(c1ccc(Cl)cc1)c1ccc2c(c1)c(-c1cccc(Cl)c1)cc(=O)n2C

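Human melanoma cells were exposed to two drugs together for 72 h in 1,536-well plates and read by automated microscopy after fixing and staining. Values are the number of DAPI-stained nuclei as a percentage of the DMSO control: 100 is no effect, lower means fewer cells. Concentrations were fixed for each drug; these are the lower of two levels, a fifth of the higher. These are primary screening values without error estimates.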 An unselected part of the screen is shown. A dash means that no value is listed here.

| Combination | A2058 | COLO 829 | C32 | MEL-HO | LB2518-MEL | 501mel |
|---|---|---|---|---|---|---|
| lenalidomide + dasatinib | 72.4 | 71.0 | 90.2 | 81.8 | 90.9 | - |
| JZL184 + U73122 | 105 | 92.0 | 91.1 | 93.1 | 105 | 124 |
| CP-690550 + KU-0063794 | 88.3 | 90.9 | 94.3 | 97.4 | 78.6 | 93.9 |
| JZL184 + veliparib | 80.4 | 78.1 | 92.0 | 105 | 91.2 | 98.7 |
| dasatinib + tipifarnib | 69.8 | 63.1 | 68.1 | 74.2 | 78.1 | - |
| midostaurin + JZL184 | 109 | 103 | 97.8 | 103 | 108 | 83.2 |
| JZL184 + CP-690550 | 102 | 115 | 101 | 93.4 | - | - |
| KU-0063794 + lenalidomide | 100 | 85.0 | 114 | 108 | 106 | 86.6 |
| lenalidomide + U73122 | 117 | 94.4 | 96.4 | 98.0 | 110 | 82.3 |
| U73122 + pioglitazone | 101 | 98.7 | 70.9 | 99.0 | 120 | 90.1 |
| dasatinib + U73122 | 76.2 | 81.8 | 66.9 | 83.5 | 86.4 | 72.9 |
| tipifarnib + pioglitazone | 81.0 | 71.1 | 96.9 | 94.5 | 86.8 | 70.9 |
| midostaurin + pioglitazone | 88.9 | 94.3 | 94.5 | 112 | 103 | 114 |
| tipifarnib + JZL184 | 82.4 | 73.4 | 109 | 102 | 103 | 115 |
| GW2580 + dasatinib | 88.1 | 79.6 | 84.5 | 88.3 | 87.5 | 90.4 |
| lenalidomide + JZL184 | 97.1 | 104 | 109 | 104 | 90.7 | 106 |
| dasatinib + JZL184 | 86.0 | 58.3 | 94.2 | 100 | - | - |
| dasatinib + veliparib | 64.1 | 52.4 | 95.2 | 78.6 | - | - |
| veliparib + GW2580 | 82.3 | 96.9 | 84.1 | 87.7 | 76.2 | 109 |
| tipifarnib + KU-0063794 | 79.4 | 89.7 | 81.5 | 83.0 | 88.7 | 78.6 |
| pioglitazone + KU-0063794 | 113 | 102 | 126 | 99.7 | 104 | 106 |
| pioglitazone + CP-690550 | 97.6 | 95.2 | 107 | 92.1 | 100 | 109 |
| tipifarnib + lenalidomide | 90.5 | 93.6 | 91.3 | 99.8 | 89.3 | - |
| pioglitazone + GW2580 | 86.2 | 111 | 100 | 119 | 90.3 | 102 |
| GW2580 + tipifarnib | 84.7 | 98.3 | 92.8 | 87.2 | 82.8 | 83.4 |
| veliparib + KU-0063794 | 83.7 | 90.1 | 94.6 | 83.3 | 86.8 | 101 |

3 of the entries, repeated:

Combination,A2058,COLO 829,C32,MEL-HO,LB2518-MEL,501mel
midostaurin + pioglitazone,88.9,94.3,94.5,112,103,114
lenalidomide + U73122,117,94.4,96.4,98.0,110,82.3
JZL184 + CP-690550,102,115,101,93.4,-,-